The assay relates to BDF1 mice, intracerebral L1210 leukemia, survival T/C. The assay is described as follows: NCI In Vivo Anticancer Drug Screen. Data for tumor model L1210 Leukemia (intracerebral) in B6D2F1 (BDF1) mice. The note with it: higher T/C = longer survival. The procedure, abridged:
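Survival measured in treated and vehicle-control tumour-bearing mice; value = T/C.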

The list does not hold the whole screen: it gathers tests that were run many times, whatever their T/C, doses with no T/C, and many T/C values between a quarter and a half above the control. Other doses and runs of a compound stand elsewhere. T/C: endpoint of the treated group in % of that of the vehicle group. Some doses have a count of surviving animals in place of a T/C: the source files T/C as zero there, which appears to mark a toxic dose or a test without result, not a measured value. Some doses without a T/C left all or most animals alive at the check, yet need not have been tolerated: the source hardly ever lists a survival T/C far under the control, and the zero likely stands for such cases as well. Survivors were counted at the toxicity check, usually on the fifth day, unless a day is given; later deaths do not show. Schedule codes are those of the source, taken here to give the interval after Q, in days (D) or hours (H), and the number of doses after X. Where survival is the endpoint, this PubChem deposit counts one and a half times the control or more as active, and values a quarter to a half above the control carry no call in these data; other NCI protocols may use other cut-offs. Counts like (3×) say how often a value occurs here. Some T/C values carry the count of animals alive at the toxicity check (mostly the fifth day); without a count, all were alive then. Some entries were tested several times; the results are listed from low to high.

Regarding `O=NN(CCBr)C(=O)NC1CCCCC1`, the T/C was 126 % of control (T/C endpoint: mean survival time, dose: 200.0 mg/kg/injection, schedule: Q01DX001 (ip), vehicle: carboxymethylcellulose (CMC)); 132 % of control (T/C endpoint: mean survival time, dose: 230.0 mg/kg/injection, schedule: Q01DX001 (ip), vehicle: carboxymethylcellulose (CMC)); 136 % of control (T/C endpoint: mean survival time, dose: 300.0 mg/kg/injection, schedule: Q01DX001 (ip), vehicle: carboxymethylcellulose (CMC)). The survivor count was 2 of 10 (T/C endpoint: mean survival time, dose: 450.0 mg/kg/injection, schedule: Q01DX001 (ip), vehicle: carboxymethylcellulose (CMC)) and 3 of 10 (T/C endpoint: mean survival time, dose: 500.0 mg/kg/injection, schedule: Q01DX001 (ip), vehicle: carboxymethylcellulose (CMC)).

For the compound `CN(Cc1cnc2nc(N)nc(N)c2n1)c1ccc(C(=O)N[C@@H](CCC(=O)O)C(=O)O)cc1`, the T/C (T/C endpoint: mean survival time, dose: 1.08 mg/kg/injection, schedule: Q01DX009 (ip), vehicle: sodium bicarbonate) is 131 % of control [9 of 10 alive]; the T/C (T/C endpoint: mean survival time, dose: 1.8 mg/kg/injection, schedule: Q01DX009 (ip), vehicle: sodium bicarbonate) was 127 % of control [9 of 10 alive]; the T/C (T/C endpoint: mean survival time, dose: 2.5 mg/kg/injection, schedule: Q01DX009 (ip), vehicle: other) was 146 % of control; the T/C (T/C endpoint: mean survival time, dose: 5.0 mg/kg/injection, schedule: Q01DX009 (ip), vehicle: other) was 140 % of control; the T/C (T/C endpoint: median survival time, dose: 2.0 mg/kg/injection, schedule: Q01DX009 (ip), vehicle: sodium bicarbonate) is 125 % of control. The survivor count (T/C endpoint: mean survival time, dose: 8.4 mg/kg/injection, schedule: Q01DX009 (ip), vehicle: sodium bicarbonate) is on record as 6 of 10 and the survivor count (T/C endpoint: median survival time, dose: 4.0 mg/kg/injection, schedule: Q01DX009 (ip), vehicle: sodium bicarbonate) is listed as 7 of 8.

Regarding `O=NN(CCCl)C(=O)NC1CSCSC1`, the T/C by setting is: (T/C endpoint: mean survival time, dose: 6.7 mg/kg/injection, schedule: Q01DX001 (ip), vehicle: other) 132 % of control; (T/C endpoint: mean survival time, dose: 10.0 mg/kg/injection, schedule: Q01DX001 (ip), vehicle: other) 138 and 142 % of control; (T/C endpoint: mean survival time, dose: 16.5 mg/kg/injection, schedule: Q01DX001 (ip), vehicle: other) 135 and 148 % of control; (T/C endpoint: mean survival time, dose: 33.0 mg/kg/injection, schedule: Q01DX001 (ip), vehicle: other) 222 [8 of 10 alive], 286, 290, 324 % of control.

For `CCOCCN1CCN(CCCN2c3ccccc3Sc3ccc(C(F)(F)F)cc32)CC1`, the survivor count runs as follows: (T/C endpoint: mean survival time, dose: 3.12 mg/kg/injection, schedule: Q01DX009 (ip), vehicle: water) 10 of 10; (T/C endpoint: mean survival time, dose: 6.25 mg/kg/injection, schedule: Q01DX009 (ip), vehicle: saline) 1 of 6; (T/C endpoint: mean survival time, dose: 12.5 mg/kg/injection, schedule: Q01DX009 (ip), vehicle: saline) 0 of 6; (T/C endpoint: mean survival time, dose: 25.0 mg/kg/injection, schedule: Q01DX009 (ip), vehicle: saline) 0 of 6; (T/C endpoint: mean survival time, dose: 35.0 mg/kg/injection, schedule: Q04DX003 (ip), vehicle: water) 2 of 6; (T/C endpoint: mean survival time, dose: 50.0 mg/kg/injection, schedule: Q04DX003 (ip), vehicle: water) 6 of 6.

Take `COc1cc(NS(C)(=O)=O)ccc1Nc1c2ccc([N+](=O)[O-])cc2nc2c(C)cccc12`: the survivor count is given as 10 of 10 (T/C endpoint: mean survival time, dose: 10.0 mg/kg/injection, schedule: Q01DX009 (ip), vehicle: saline); 4 of 10 (T/C endpoint: mean survival time, dose: 20.0 mg/kg/injection, schedule: Q01DX009 (ip), vehicle: saline); 8 of 10 (T/C endpoint: mean survival time, dose: 20.0 mg/kg/injection, schedule: Q01DX009 (sc), vehicle: saline).

Regarding `O=NN(CCCl)C(=O)NC1CC2CCC1C2` (centres undefined), the T/C reads like this: (T/C endpoint: mean survival time, dose: 14.5 mg/kg/injection, schedule: Q01DX001 (ip), vehicle: other) 130 % of control (2×); (T/C endpoint: mean survival time, dose: 18.0 mg/kg/injection, schedule: Q01DX001 (ip), vehicle: carboxymethylcellulose (CMC)) 135 % of control; (T/C endpoint: mean survival time, dose: 29.0 mg/kg/injection, schedule: Q01DX001 (ip), vehicle: other) 157, 164 [9 of 10 alive], 188, 193 % of control; (T/C endpoint: mean survival time, dose: 58.0 mg/kg/injection, schedule: Q01DX001 (ip), vehicle: other) 326, 329, 333 [9 of 10 alive], 395 % of control.
